The list shows a part of the results. For some assays here: Construct or isoform of the protein are uncertain.

The chains behind the UniProt entries cited, without tags or fusion partners. Where a name states a change or a piece, a line headed by the entry shows the natural chain unless it says otherwise.
UniProt Q12904: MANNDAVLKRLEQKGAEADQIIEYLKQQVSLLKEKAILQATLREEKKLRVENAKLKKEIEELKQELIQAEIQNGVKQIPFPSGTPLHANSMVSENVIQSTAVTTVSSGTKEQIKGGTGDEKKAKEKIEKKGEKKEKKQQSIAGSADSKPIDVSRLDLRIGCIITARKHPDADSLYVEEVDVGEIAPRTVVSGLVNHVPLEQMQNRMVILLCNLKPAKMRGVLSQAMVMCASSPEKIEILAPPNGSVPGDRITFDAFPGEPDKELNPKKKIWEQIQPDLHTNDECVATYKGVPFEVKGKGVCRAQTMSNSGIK

Holding throughout (assay): protein microarray (ProtoArray v5.0), streptavidin-Alexa Fluor 647
What all share (conditions): 3'-biotin; 20 mM Tris (pH 7.5), 5 mM MgCl2, 100 mM KCl, 0.1% Tween-20, A/T-rich and random oligonucleotide blockers; temperature not stated; high values mean tight binding

Test [1] concerns S100A8 (human).
The subject of test [2] is SAA1 (human).
The subject of test [3] is SAA4 (human).
Test [4] relates to SAE1 (human).
The subject of test [5] is SAMD3 (human).
For test [6], the system named is SAMD4A (human).
Test [7] has as its system SAPS2 (human).
Test [8] concerns SAR1A (human).
The subject of test [9] is SAR1B (human).
Test [10] concerns SCAMP2 (human).
Test [11] relates to SCC-112 (human).
The target in test [12] is T1, SCEL (UniProt O95171).
T1 sequence: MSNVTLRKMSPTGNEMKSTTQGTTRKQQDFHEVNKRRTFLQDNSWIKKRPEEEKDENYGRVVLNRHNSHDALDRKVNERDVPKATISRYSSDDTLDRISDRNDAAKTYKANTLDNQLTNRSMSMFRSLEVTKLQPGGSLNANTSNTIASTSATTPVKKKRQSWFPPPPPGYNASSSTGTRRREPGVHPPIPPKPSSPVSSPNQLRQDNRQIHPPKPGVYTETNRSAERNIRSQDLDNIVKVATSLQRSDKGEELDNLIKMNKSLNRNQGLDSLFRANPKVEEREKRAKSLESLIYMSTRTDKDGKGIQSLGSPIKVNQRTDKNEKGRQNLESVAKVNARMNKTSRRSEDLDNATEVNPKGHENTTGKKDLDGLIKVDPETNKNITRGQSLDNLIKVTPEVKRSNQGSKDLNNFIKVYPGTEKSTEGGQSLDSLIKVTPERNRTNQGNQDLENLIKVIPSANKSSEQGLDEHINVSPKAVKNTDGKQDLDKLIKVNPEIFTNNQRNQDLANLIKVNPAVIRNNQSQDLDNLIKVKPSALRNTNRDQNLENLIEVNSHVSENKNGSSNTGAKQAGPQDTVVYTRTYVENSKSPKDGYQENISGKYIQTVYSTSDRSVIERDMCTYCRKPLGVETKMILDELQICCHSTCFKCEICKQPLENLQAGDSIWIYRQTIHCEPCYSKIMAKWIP

Test [13] concerns SCGB1A1 (human).
For test [14], the system named is SCGB1C1 (human).
For test [15], the system named is SCGB3A1 (human).
Test [16] deals with SCP2 (human).
Test [17] addresses SCYE1 (UniProt Q12904).
The test system of test [18] is SDC1 (human).
The test system of test [19] is SDC4 (human).
For test [20], the system named is SDSL (human).

Take “GGTGACAGGGGTATGGGGAGGGG [G4-2 biotinylated (Ct1)]”: the binding signal is -0.403 z-score in test [1]; -0.382 z-score in test [2]; -0.376 z-score in test [3]; -0.396 z-score in test [4]; -0.378 z-score in [5]; -0.385 z-score in test [6]. In addition, the binding signal in [7] was -0.397 z-score; in test [8], -0.394 z-score; in test [9], -0.4 z-score; in test [10] it was -0.384 z-score; in test [11], 3.45 z-score; in [12], 3.91 z-score. Moreover, the binding signal in test [13] was -0.4 z-score; in test [14], -0.396 z-score; in test [15] it was -0.364 z-score; in [16], -0.399 z-score; in [17], 5.44 z-score; in [18] it was -0.383 z-score. Moreover, the binding signal was -0.369 z-score in test [19] and -0.397 z-score in test [20].

These data come from PMC5996148.
